Test results as given in patent US20250221936A1, “ENGINEERED HEMICHANNELS, ENGINEERED VESICLES, AND USES THEREOF” (VIRGINIA TECH INTELLECTUAL PROPERTIES, INC., priority 2018, published 2025).
No constants are given. Whether binding was seen depends on the method and setting. Some entries that bind do so weakly or less than the wild type.

Sequences of proteins named here, by UniProt entry; tags and fusion partners are left off. Residues count along the entry.
UniProt P08050, residues 255-382: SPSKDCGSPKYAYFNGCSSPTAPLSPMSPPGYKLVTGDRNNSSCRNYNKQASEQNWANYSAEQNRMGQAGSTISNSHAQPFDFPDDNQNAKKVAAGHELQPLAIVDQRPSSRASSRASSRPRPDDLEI

What was measured:
[1] = biological target: Cx43 CT (Connexin 43 carboxyl terminus, amino acids 255 to 382) (UniProt P08050); assay: summary grade of interaction with Cx43 CT (Table 1)
[2] = biological target: Cx43 CT (Connexin 43 carboxyl terminus, amino acids 255 to 382) (UniProt P08050); assay: summary sentence of the kinase assay section
[3] = biological target: Cx43 CT (Connexin 43 carboxyl terminus, amino acids 255 to 382) (UniProt P08050); assay: protein thermal shift assay of Cx43 CT
[4] = biological target: Cx43 CT (Connexin 43 carboxyl terminus, amino acids 255 to 382) (UniProt P08050); assay: SPR, captured aCT1, Cx43 CT analyte at 100 uM
[5] = biological target: Cx43 CT (Connexin 43 carboxyl terminus, amino acids 255 to 382) (UniProt P08050); assay: summary of the biochemical characterizations
[6] = biological target: Cx43 CT (Connexin 43 carboxyl terminus, amino acids 255 to 382) (UniProt P08050); assay: summary sentence in Example 21
[7] = biological target: Cx43 CT (Connexin 43 carboxyl terminus, amino acids 255 to 382) (UniProt P08050); assay: SPR, biotin-alpha CT1 on streptavidin chip, Cx43 CT analyte 0.5 to 15 µM
GST-Cx43 CT [8] = biological target: T1, GST-Cx43 CT (Rattus norvegicus, UniProt P08050); assay: EDC cross-linking of kinase reaction mixtures with GST-Cx43 CT, Coomassie gel and MS/MS
GST-Cx43 CT [9] = biological target: T1, GST-Cx43 CT; assay: EDC cross-linking of the kinase reaction mixture, SDS-PAGE and MS/MS
[10] = biological target: Cx43 CT (Connexin 43 carboxyl terminus, amino acids 255 to 382) (UniProt P08050); assay: protein thermal shift assay
GST-Cx43 CT [11] = biological target: T1, GST-Cx43 CT; assay: EDC cross-linking blots, alpha CT1 at 5, 10 and 25 µM

| binding [1] | binding [2] | binding [3] | binding [4] | binding [5] | binding [6] | binding [7] | binding (GST-Cx43 CT [8]) | binding (GST-Cx43 CT [9]) | binding [10] | binding (GST-Cx43 CT [11]) | Binder |
| --- | --- | --- | --- | --- | --- | --- | --- | --- | --- | --- | --- |
| binds | binds | binds |  |  |  |  |  |  |  |  | RPRPDDLEI (biotin tag in the kinase assay) [alpha CT11] |
| binds | binds | binds | binds | binds | binds | binds | binds | binds | binds | binds | RQPKIWFPNRRKPWKKRPRPDDLEI (biotin tag (biotin-alpha CT1) in the cross-linking, SPR and kinase assays) [alpha CT1] |
| binds | binds | binds |  | binds |  |  |  |  |  |  | RQPKIWFPNRRKPWKKRPRPDDLE (biotin tag in cross-linking and kinase assays) [alpha CT1-I] |
